Measured values published in PubChem BioAssay AID504834 (National Center for Advancing Translational Sciences (NCATS), 2011).
About 22,000 (6.9%) of roughly 320,000 compounds were called active. This list was built around the results that the source calls inconclusive (neither active nor inactive); the mix of calls is not that of the screen. The call rests on the fitted dose curve; in most records, active means well fitted inhibition curve with a large enough effect; inconclusive means small, poorly fitted or top-dose-only effect, or another doubt; inactive means no such curve, though single readings can be large or run the other way. Potencies beside an inconclusive call are fits to weak or partial responses and may not hold up.

Assay: Primary qHTS for delayed death inhibitors of the malarial parasite plastid, 96 hour incubation
Conditions: P. falciparum luciferase reporter growth; series mostly up to 28.7 µM
Method in brief: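 96 h incubation, 37 C, 5% CO2, of luciferase-reporter P. falciparum-infected RBCs (2% hematocrit, 0.05% parasitemia final) with test compounds; endpoint luminescence.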
Potency means the concentration at half of the fitted maximal effect.

Compound	Potency
O=C(Nc1ccc(-c2csc(Nc3ccccc3)n2)cc1)c1cccc(C(F)(F)F)c1	inconclusive: 18.5 µM [inhibitor, single point]
CCOc1ccc(-c2nc(-c3ccccc3)no2)cc1OCC	inconclusive: 0.262 µM [inhibitor, partial curve, poor fit]
Cc1ccccc1N1CCN(Cc2nc(Cc3ccccc3F)no2)CC1	inactive
O=C(NC(=S)Nc1nc(-c2ccc([N+](=O)[O-])cc2)cs1)c1ccco1	inconclusive: 18.5 µM [inhibitor, single point]
S=C(Nc1ccc(Cl)c(Cl)c1)N1CCOCC1	inactive
COc1ccc(NS(=O)(=O)c2cn(C)c(=O)n(C)c2=O)cc1	inactive
O=C(O)c1cccc(-n2c(/C=C/c3ccccc3)nc3ccccc3c2=O)c1	inactive
O=C(NCCc1ccc(F)cc1)c1ccc(S(=O)(=O)N2CCCCC2)cc1	inconclusive: 9.28 µM [inhibitor, partial curve]
CCOC(=O)Cc1csc(NS(=O)(=O)c2ccc(C(F)(F)F)cc2)n1	inactive
O=C(NCCC(=O)N1CCN(Cc2c(F)cccc2Cl)CC1)c1ccc(Cl)cc1	inconclusive: 18.5 µM [inhibitor, single point]
O=C(Nc1ccc(Cl)cc1)Nc1ccc(N2CCC(C(F)(F)F)CC2)nc1	inactive
COc1ccc([C@@H](C)NC(=O)c2ccc3oc(C(C)C)nc3c2)cc1	active: 0.657 µM
CC(=O)Nc1ccc(Sc2ncccc2C(=O)Nc2cc(Cl)cc(Cl)c2)cn1	inactive
CC(=O)c1ccc(Nc2cc(C)nc3c(C)cccc23)cc1	inactive
CCOc1ccccc1NC(=O)CSC1=NN2CCCC(=O)N=C2S1	inactive
Cc1cc(F)ccc1S(=O)(=O)NCC(c1cccnc1)N1CCc2ccccc21 (centres undefined)	inactive
CCOP(=O)(OCC)/C(=C/N1CCCCC1)NC(=O)c1ccccc1	inconclusive: 18.5 µM [inhibitor, single point]
Cc1ccc(CC2CC(=O)N(c3ccc4c(c3)OCCO4)C2=O)cc1 (centres undefined)	inconclusive: 18.5 µM [inhibitor, single point]
Cc1ccc(NC2c3ccccc3C(=O)N2c2cccnc2)cc1 (centres undefined)	inconclusive: 10.4 µM [inhibitor, single point]
O=C(Nc1ccc(S(=O)(=O)NC2=NCCCCC2)cc1)c1ccc2ccccc2n1	inconclusive: 0.928 µM [inhibitor, partial curve, poor fit]
CCn1c2ccccc2c2cc(NC(=O)c3ccccc3-c3ccccc3C(=O)O)ccc21	inconclusive: 14.7 µM [inhibitor, single point]
Cc1cc(Cl)ccc1NC(=S)NCc1ccco1	inactive
Cc1ccc(OCCN2C(=O)S/C(=C\c3ccc(C)o3)C2=O)cc1	inconclusive: 5.86 µM [inhibitor, partial curve, poor fit]
COc1ccc(NC(=O)C(CC(C)C)NS(=O)(=O)c2ccc3c(c2)CCN3C(C)=O)cc1OC (centres undefined)	inconclusive: 18.5 µM [inhibitor, single point]
Cc1cccc(CCNC(=O)C2CCN(S(=O)(=O)c3c(C)nn(C)c3C)CC2)c1	inactive

Part of the list above, comma-delimited:
Compound,Potency
Cc1ccccc1N1CCN(Cc2nc(Cc3ccccc3F)no2)CC1,inactive
O=C(NCCc1ccc(F)cc1)c1ccc(S(=O)(=O)N2CCCCC2)cc1,"inconclusive: 9.28 µM [inhibitor, partial curve]"
COc1ccc([C@@H](C)NC(=O)c2ccc3oc(C(C)C)nc3c2)cc1,active: 0.657 µM

The list continues.

Compound	Potency
Cc1nnc(-c2ccccc2)o1	inactive
COc1ccccc1N1CCN(C2CCCN(C(=O)c3ccoc3C)C2)CC1 (centres undefined)	inconclusive: 9.28 µM [inhibitor, single point]
CCCN1C(=O)C(NC(C)=O)c2cc(OC)ccc21 (centres undefined)	inconclusive: 5.22 µM [inhibitor, partial curve, poor fit]
NC(=O)CCn1c(C(=O)c2cc(Cl)c(N)c(Cl)c2)c2ccccc2[n+]1[O-]	active: 10.4 µM
O=C(NCc1cccnc1)/C(=C/c1ccco1)NC(=O)c1ccccc1	active: 11.7 µM
Cc1cccc2sc(NC(=O)C3CCN(C(=O)c4ccco4)CC3)nc12	active: 14.7 µM
CC(/C=N/NC(=O)CSc1nc(C)cc(C)n1)=C\c1ccccc1	inconclusive: 14.7 µM [inhibitor, single point]
CC1=NOC(=O)/C1=C/c1ccc(-c2ccc(Cl)cc2)o1	inactive
CC1CCCC(C)N1C(=O)c1ccccc1Nc1ccc(SC(F)F)cc1 (centres undefined)	active: 13.1 µM
Cc1nn(-c2ccccc2)c(Cl)c1/C=N/N1CCN(c2ccccn2)CC1	inactive
CCOC(=O)c1c(NC(=O)CSc2ncn[nH]2)sc(C(=O)N(C)C)c1C	inconclusive: 10.4 µM [inhibitor, single point]
COc1cc(SC)ccc1C(=O)N1CCN(S(=O)(=O)/C=C/c2ccccc2)CC1	inconclusive: 5.22 µM [inhibitor, partial curve, poor fit]
Cc1ccc(OCC(O)Cn2nc(C)cc2C)cc1 (centres undefined)	inactive
CNC(=O)/C(C#N)=C1/SC(Cc2ccc(F)cc2)C(=O)N1c1ccccc1 (centres undefined)	inconclusive: 0.0047 µM [inhibitor, full curve, poor fit]
O=C1c2ccccc2C(=O)C1c1ccc(Br)cc1	active: 15.1 µM
O=C(NNC(=O)C1CCN(c2ncccn2)CC1)c1ccncc1	inactive
CCN(CC)S(=O)(=O)c1ccc(N2CC(C(=O)NCCc3ccc(Cl)cc3)CC2=O)cc1 (centres undefined)	inconclusive: 18.5 µM [inhibitor, single point]
COc1ccc(C(C(=O)NCc2ccccc2)N(Cc2cccs2)C(=O)c2cnccn2)cc1 (centres undefined)	inconclusive: 18.5 µM [inhibitor, single point]
COc1cccc(NC(=O)NC2(C(F)(F)F)Oc3ccccc3O2)c1	inactive
Cc1ccc(OCCC(=O)OCC(=O)Nc2ccc3[nH]c(=O)[nH]c3c2)cc1	inactive
O=C(NCc1ccccc1)C(=O)Nc1nccs1	inactive
Cc1ccc(-n2nnnc2SCC(=O)NCC2(N3CCCCC3)CCCCC2)c(C)c1	active: 7.38 µM
Clc1nc(-c2ccccc2)cc(-c2ccccc2)n1	inconclusive: 18.5 µM [inhibitor, partial curve, poor fit]
C=CCN(CC=C)C(=O)Nc1ccc2nc(C)sc2c1	inconclusive: 10.4 µM [inhibitor, single point]
